Source: article PMC7819943, “Rice protein-binding microarrays: a tool to detect cis-acting elements near promoter regions in rice”
This is one part of the list.

These sequences were tested against T1, OsSMF1 (Oryza sativa, UniProt Q6ZLB0 1-436) (assay: protein-binding microarray (RPBM); PBS, 2% BSA, 51.3 ng/ul salmon testes DNA, 50 uM zinc acetate, 200 nM TF, 25 C, 1 h; high values mean tight binding). Conditions: protein: recombinant; tags: N-terminal polyhistidine and DsRed monomer fusion (pET32a); chain copies: 2; label: CyDye5-dUTP incorporated in the synthesized complementary strand; 3' TTTTT single-stranded linker to array surface; dsDNA, one strand shown.
T1 sequence: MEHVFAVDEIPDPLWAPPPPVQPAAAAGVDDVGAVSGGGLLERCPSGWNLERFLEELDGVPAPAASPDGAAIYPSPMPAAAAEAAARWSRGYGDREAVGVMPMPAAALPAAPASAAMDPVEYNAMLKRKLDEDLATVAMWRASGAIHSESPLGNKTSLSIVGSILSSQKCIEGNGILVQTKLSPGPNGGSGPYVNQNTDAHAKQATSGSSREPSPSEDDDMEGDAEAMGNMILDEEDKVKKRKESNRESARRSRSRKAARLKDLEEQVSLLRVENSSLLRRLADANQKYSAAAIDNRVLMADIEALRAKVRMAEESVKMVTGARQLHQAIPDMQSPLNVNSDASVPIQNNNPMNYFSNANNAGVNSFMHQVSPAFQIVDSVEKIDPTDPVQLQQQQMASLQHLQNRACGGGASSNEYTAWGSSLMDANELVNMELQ
Summary of the method: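 An Axon 4000B scanner gave the binding signal as per-feature fluorescence intensity in arbitrary units. This followed washing of a custom Agilent array that had been incubated for 1 h at 25 °C with 200 nM protein in PBS, 2% BSA, salmon testes DNA and 50 µM zinc acetate. The proteins were transcription factors fused at the N-terminus to polyhistidine and DsRed, expressed in E. coli BL21-CodonPlus and purified on Ni–NTA.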

| Sequence | binding signal |
| --- | --- |
| CCGACGCCGACCCCTTCTCCCAATCTGCGGATTCCAGCGGCGGAGTCACCTAGTGCAG | 19500 fluorescence intensity (a.u.) |
| GATGGTCGTGGTGCATCCATGACGCTCTATCTTCTCCAGCCGGAGTCACCTAGTGCAG | 4520 fluorescence intensity (a.u.) |
| TGGCTGCTGCATGGTTGTTTGCATGGCCGTTGCAGTGTTGCGGAGTCACCTAGTGCAG | 4380 fluorescence intensity (a.u.) |
| AGTTCAAGAAAACTTTATATTCAAACAAGAAAATTGGGGCCGGAGTCACCTAGTGCAG | 40900 fluorescence intensity (a.u.) |
| ACCCGTCTCTGTTCATCTCCACATCTTGTCTTCTCGCTGTCGGAGTCACCTAGTGCAG | 3160 fluorescence intensity (a.u.) |
| TTCCTATGGAAAGCGTTGATCCCGCTTCACAAGCCAAAGACGGAGTCACCTAGTGCAG | 23300 fluorescence intensity (a.u.) |
| GATATGGTAATTTAGTGTCCATTATGGTGTTTCTTAATTGCGGAGTCACCTAGTGCAG | 4310 fluorescence intensity (a.u.) |
| GTCGCAGCATCCACGCCACGCCACGCCACGCCACGCGTTTCGGAGTCACCTAGTGCAG | 9850 fluorescence intensity (a.u.) |
| ATCTCGCTTCCATTTCTTCGCCATTTGAGCTTTCTTGGAGCGGAGTCACCTAGTGCAG | 21800 fluorescence intensity (a.u.) |
| TCGTTGCCTCTCCTCCTCCTCGTCACCTCACCTGCACCTGCGGAGTCACCTAGTGCAG | 4020 fluorescence intensity (a.u.) |
| GGCGGTGAACCCAGAGCCAGTGACCATTCCACCAGGTGAACGGAGTCACCTAGTGCAG | 3680 fluorescence intensity (a.u.) |
| GACGTGATAAAGAAGTTCAGATTTAGAAATAAATTTGAAGCGGAGTCACCTAGTGCAG | 3820 fluorescence intensity (a.u.) |
| GCGGACGCTGAGCTACGCCACATCGGATAGGAATAGTGCGCGGAGTCACCTAGTGCAG | 6290 fluorescence intensity (a.u.) |
| CTATCAAATATCTGATGTAATCAATTTGTCACTAGACTACCGGAGTCACCTAGTGCAG | 3210 fluorescence intensity (a.u.) |
| ACATTACCAAATTTTAACAATGCCAAAATTTTGGTAAGGTCGGAGTCACCTAGTGCAG | 3450 fluorescence intensity (a.u.) |
| TGTTGTGATACACATCATTTGGAGCCCTGACTATTCCAGGCGGAGTCACCTAGTGCAG | 3200 fluorescence intensity (a.u.) |
| CCTATAGCTAGCTAGCTCGTCACACACACCTCACAGGCTCCGGAGTCACCTAGTGCAG | 3820 fluorescence intensity (a.u.) |
| CCGTGCCGAGTCCGAGATGCCGAGAGCCGTGGCACGTCACCGGAGTCACCTAGTGCAG | 9970 fluorescence intensity (a.u.) |
| CAAGTTTAGGGACCGGGATGACACAATTGAACAAGTTTGACGGAGTCACCTAGTGCAG | 3510 fluorescence intensity (a.u.) |
| CGCCTGGGAGCTGTACGGGTGCGTCCTCGTCTCGCTGGCGCGGAGTCACCTAGTGCAG | 3230 fluorescence intensity (a.u.) |
| GCCCAGTCCACCATCGTCGTCACCCACGAGGAGACGCCGCCGGAGTCACCTAGTGCAG | 4630 fluorescence intensity (a.u.) |

As entered above:
In binding signal, ACATTACCAAATTTTAACAATGCCAAAATTTTGGTAAGGTCGGAGTCACCTAGTGCAG shows 3450 fluorescence intensity (a.u.)
In binding signal, AGTTCAAGAAAACTTTATATTCAAACAAGAAAATTGGGGCCGGAGTCACCTAGTGCAG shows 40900 fluorescence intensity (a.u.)

Next results follow.

| Sequence | binding signal |
| --- | --- |
| GTATTGACAGCCACTCGGCCTATCCATTTTGCGTCCAATACGGAGTCACCTAGTGCAG | 16200 fluorescence intensity (a.u.) |
| TTGTATGTAAATTGTGAGACGAATCTTTTGAGCCTAATTACGGAGTCACCTAGTGCAG | 32500 fluorescence intensity (a.u.) |
| ATTCTCTTGTGTGCAGCACTATCGTCAGTGGCCACGCTTGCGGAGTCACCTAGTGCAG | 3860 fluorescence intensity (a.u.) |
| CAACTTTGGAAGAACTAAACACAGCATATGACAGTGCAGTCGGAGTCACCTAGTGCAG | 4130 fluorescence intensity (a.u.) |
| GGCATGGGCCCTGCGGTTCGGCGGCAGTGACGAGCGGCAACGGAGTCACCTAGTGCAG | 3930 fluorescence intensity (a.u.) |
| TCCGCCTCGGCGCCACCTGACTCAGCCTCCCCTCCCCGGCCGGAGTCACCTAGTGCAG | 10900 fluorescence intensity (a.u.) |
| TCCACCACCGCGGCAAGTTCTACTCCATCACCTACTCCGGCGGAGTCACCTAGTGCAG | 3720 fluorescence intensity (a.u.) |
| CCTGGTGTAGACTCTAGTACCAGATGTCGTGGGAGATTTTCGGAGTCACCTAGTGCAG | 3970 fluorescence intensity (a.u.) |
| GTGCGGCGTGCCGTACACCGGCGCCAGCATCGCCGTGCTTCGGAGTCACCTAGTGCAG | 3560 fluorescence intensity (a.u.) |
| TATCCAGTTGGGCACATTTGACCTGTCTCTGACCTGACAACGGAGTCACCTAGTGCAG | 3760 fluorescence intensity (a.u.) |
| TTACAGGATTATATATCATGTTTATCTATTCGTCTTACTACGGAGTCACCTAGTGCAG | 39500 fluorescence intensity (a.u.) |
| CACTCGCGCCACCCAATTGCACGCATTTACAATTCAATTCCGGAGTCACCTAGTGCAG | 3620 fluorescence intensity (a.u.) |
| TTTCCTCCTCGCCGCCGTCGCGTGGCGCGATGGCCGCCCCCGGAGTCACCTAGTGCAG | 3750 fluorescence intensity (a.u.) |
| CACTTGGTAATTACTTCTACTATGTCATCCTTATCATAATCGGAGTCACCTAGTGCAG | 3200 fluorescence intensity (a.u.) |
| CAAACCAAGCAAACGTTTGACAAGCGATGTGTGTCACTGTCGGAGTCACCTAGTGCAG | 4110 fluorescence intensity (a.u.) |
| CCGGAGAATCTCATGTTGCCTAGTCGCCTAACCCGCCTAACGGAGTCACCTAGTGCAG | 26300 fluorescence intensity (a.u.) |
| CATCTCCACCTCTCCGATGGCCACGCTATCGATTTCCTCTCGGAGTCACCTAGTGCAG | 3420 fluorescence intensity (a.u.) |
| GATGGATGATAGTTCTGTAGTATATATGACGACAGTCACTCGGAGTCACCTAGTGCAG | 3490 fluorescence intensity (a.u.) |
| ACAGATAGTCTCACGCTAATATATACTTCTCTTGTTAGGTCGGAGTCACCTAGTGCAG | 3650 fluorescence intensity (a.u.) |
| AATCTATCGACGCCACCGATCGACCTACGCCTGCAAATTACGGAGTCACCTAGTGCAG | 3770 fluorescence intensity (a.u.) |
| CTCCTCATCCTCATCGTCGCCGCCGCCCACGTCGTCTCGCCGGAGTCACCTAGTGCAG | 6120 fluorescence intensity (a.u.) |
